PubChem BioAssay AID1671195, Yale University – 2021
Purpose: 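Knockdowns that increase or decrease uptake of fluorescent LDL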 (primary screen). System: human Huh7 hepatoma cells. Knock-down reagent: siRNA pool against human genes, 18 nM. Time to read-out: about 2 to 2.5 days of knockdown, then 8 h LDL uptake. Challenge: DiI-labelled LDL at 30 µg/ml for 8 h, in lipoprotein-deficient serum medium. Measurement: 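Per-cell DiI-LDL intensity by automated imaging; well means scaled to the plate median and given as a robust z-score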. Scale: robust z-score: higher = more LDL uptake after knockdown. Rule for the call: 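Active when two or more replicates show a robust z-score above 2 or below -2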.
Shown is one part, drawn at random, of about 22,000 deposited reagents. In the full data, about 1,510 (6.9%) are marked active. 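Active includes knockdowns raising or lowering LDL uptake; positive z-scores mean more uptake, negative mean less.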

| target | robust z-score, replicate 1 | robust z-score, replicate 2 | robust z-score, replicate 3 | Call |
| --- | --- | --- | --- | --- |
| NMI (N-myc and STAT interactor) | 1.3 | 1.05 | 0.753 | inactive |
| LOC441872 (retired record) | -0.234 | -0.282 | -0.376 | inactive |
| LINC01566 (long independently transcribed non-coding RNA 1566) | -0.413 | -0.448 | -0.398 | inactive |
| PHF2 (PHD finger protein 2) | -0.0382 | -0.0907 | -1.08 | inactive |
| ACP3 (acid phosphatase 3) | -0.0897 | -0.0575 | 0.356 | inactive |
| USP1 (ubiquitin specific peptidase 1) | -0.644 | -0.839 | -0.373 | inactive |
| PLEKHM2 (pleckstrin homology and RUN domain containing M2) | 2.97 | 3.29 | 2.48 | active |
| BCAR3 (BCAR3 adaptor protein, NSP family member) | 0.0457 | -0.117 | -1.33 | inactive |
| RPA2 (replication protein A2) | 0.696 | 0.38 | 0.969 | inactive |
| FLT1P1 (FLT1 pseudogene 1) | -0.519 | -1.47 | -1.6 | inactive |
| GPR27 (G protein-coupled receptor 27) | 0.31 | 0.0105 | -0.264 | inactive |
| ZNF415 (zinc finger protein 415) | -0.837 | 0.0113 | 1.14 | inactive |
| EXTL1 (exostosin like glycosyltransferase 1) | -0.0822 | -0.0451 | 1.09 | inactive |
| APOBEC1 (apolipoprotein B mRNA editing enzyme catalytic subunit 1) | 2.26 | 2.18 | 2.51 | active |
| PPCDC (phosphopantothenoylcysteine decarboxylase) | 2.91 | 2.93 | 3.22 | active |
| SAPCD2 (suppressor APC domain containing 2) | 0.205 | 0.00448 | -0.119 | inactive |
| NPAS3 (neuronal PAS domain protein 3) | -0.294 | 1.1 | 0.437 | inactive |
| PPP2CA (protein phosphatase 2 catalytic subunit alpha) | 0.00137 | -1.26 | -0.332 | inactive |
| ZP3 (zona pellucida glycoprotein 3) | 0.335 | 0.957 | 1.57 | inactive |
| ZNF740 (zinc finger protein 740) | -0.636 | -0.617 | -0.404 | inactive |
| LOC389028 (retired record) | -0.127 | 0.165 | -0.385 | inactive |
| IL7 (interleukin 7) | -1.22 | -1.24 | -0.941 | inactive |
| COBLL1 (cordon-bleu WH2 repeat protein like 1) | 1.75 | 1.16 | 1.07 | inactive |
| ZNF112 (zinc finger protein 112) | -0.373 | 0.801 | 0.13 | inactive |
| LOC441579 (retired record) | -1.04 | -1.51 | -1.45 | inactive |
| LOC390865 (retired record) | -1.82 | -1.82 | -1.68 | inactive |
| BCL2L15 (BCL2 like 15) | 1.12 | 1.05 | 1.31 | inactive |
| MAGEB3 (MAGE family member B3) | 0.183 | -0.11 | -0.2 | inactive |
| SSBP3-AS1 (SSBP3 antisense RNA 1) | -3.09 | -3.13 | -2.9 | active |
| IL19 (interleukin 19) | -1.09 | 0.964 | 0.354 | inactive |
| RPAP1 (RNA polymerase II associated protein 1) | 0.407 | 0.551 | 0.212 | inactive |
| PCDHA1 (protocadherin alpha 1) | -0.345 | 0.429 | -0.736 | inactive |
| KAT8 (lysine acetyltransferase 8) | 1.9 | 2.43 | 0.512 | active |
| CCNJL (cyclin J like) | -0.204 | -1.01 | -0.541 | inactive |
| UBE2J1 (ubiquitin conjugating enzyme E2 J1) | -0.665 | -2.02 | -1.09 | inactive |
| TCAF2 (TRPM8 channel associated factor 2) | -0.404 | -0.63 | -0.476 | inactive |
| GPR15 (G protein-coupled receptor 15) | -2.06 | 0.0419 | 0.412 | inactive |
| CBLN2 (cerebellin 2 precursor) | -0.857 | -1.06 | -0.644 | inactive |
| ZBTB38 (zinc finger and BTB domain containing 38) | 1.41 | 0.524 | 1.77 | inactive |
| SFPQ (splicing factor proline and glutamine rich) | -1.52 | -1.61 | -1.07 | inactive |
| LRRC37A5P (leucine rich repeat containing 37 member A5, pseudogene) | -1.38 | -1.21 | -2.43 | inactive |
| C5orf24 (chromosome 5 open reading frame 24) | -1.71 | 0.0426 | 0.29 | inactive |
| LOC401180 (retired record) | -0.576 | -0.542 | -0.48 | inactive |
| DGKZ (diacylglycerol kinase zeta) | -0.566 | 0.109 | 0.211 | inactive |
| LMBR1 (limb development membrane protein 1) | -0.381 | -0.318 | -0.592 | inactive |

Entries listed so far whose gene name begins with I or i:
| target | robust z-score, replicate 1 | robust z-score, replicate 2 | robust z-score, replicate 3 | Call |
| --- | --- | --- | --- | --- |
| IL7 (interleukin 7) | -1.22 | -1.24 | -0.941 | inactive |
| IL19 (interleukin 19) | -1.09 | 0.964 | 0.354 | inactive |

Continued:
| target | robust z-score, replicate 1 | robust z-score, replicate 2 | robust z-score, replicate 3 | Call |
| --- | --- | --- | --- | --- |
| S100A12 (S100 calcium binding protein A12) | 0.041 | 0.189 | 0.135 | inactive |
| CDKN1B (cyclin dependent kinase inhibitor 1B) | -1.92 | -1.8 | -0.195 | inactive |
| PWP1 (PWP1 homolog, endonuclein) | -0.125 | -0.638 | -0.284 | inactive |
| SEC62 (SEC62 preprotein translocation factor) | 0.00752 | -0.0329 | -0.162 | inactive |
| SPMIP4 (sperm microtubule inner protein 4) | 1.4 | -0.113 | 1.18 | inactive |
| SPP2 (secreted phosphoprotein 2) | -0.932 | -0.0506 | -0.0423 | inactive |
| MPHOSPH6 (M-phase phosphoprotein 6) | -0.717 | 0.55 | -0.636 | inactive |
| HOXD13 (homeobox D13) | -0.58 | -0.0528 | -0.304 | inactive |
| PLEKHM3 (pleckstrin homology domain containing M3) | -1.31 | -1.36 | -1.26 | inactive |
| MBNL1 (muscleblind like splicing regulator 1) | -1.24 | -1.3 | -1.22 | inactive |
| PHPT1 (phosphohistidine phosphatase 1) | 0.94 | 0.784 | 1.93 | inactive |
| ARL2 (ARF like GTPase 2) | 1.29 | -0.38 | 0.0995 | inactive |
| SLC25A36 | -1.18 | -1.61 | -1.08 | inactive |
| CD46 (CD46 molecule) | -0.22 | 0.0533 | -0.106 | inactive |
| CCHCR1 (coiled-coil alpha-helical rod protein 1) | -0.352 | -1.22 | -0.731 | inactive |
| POLDIP3 (DNA polymerase delta interacting protein 3) | 0.174 | 0.222 | 0.71 | inactive |
| PCDHB7 (protocadherin beta 7) | -0.955 | -0.883 | -0.889 | inactive |
| COL15A1 (collagen type XV alpha 1 chain) | 1.52 | 0.822 | 1.2 | inactive |
| RNF175 (ring finger protein 175) | -0.621 | -0.694 | -0.736 | inactive |
| JMJD7-PLA2G4B (JMJD7-PLA2G4B readthrough) | 0.424 | -1.66 | 0.454 | inactive |
| CRLF2 (cytokine receptor like factor 2) | 2.58 | 1.06 | 1.56 | inactive |
| ST3GAL5 (ST3 beta-galactoside alpha-2,3-sialyltransferase 5) | -0.728 | -0.393 | -0.492 | inactive |
| SLX4IP (SLX4 interacting protein) | -0.111 | 0.886 | 0.0625 | inactive |
